The text below walks through data of patent US20240285586A1, “METHODS FOR TREATING BACTERIAL CELL POPULATIONS” (THE HONG KONG POLYTECHNIC UNIVERSITY, priority 2021, published 2024).

The experiment concerns E. coli J53 (mcr-1). Briefly: MIC of colistin in presence and absence of compound, broth dilution. The conditions noted are these: antibiotic resistant E. coli (FIG. 20). The class given is cell-based, Escherichia coli. As for the experimental part: FIG. 20. […] The MICs of colistin in the presence and absence of Compound No. 1-23 against colistin-resistant E. coli was determined using broth dilution method according to the CLSI criteria of 2016.
Background: Dilution methods test growth across graded concentrations, often in twofold steps.

For `Clc1ccc(CSC(Cn2ccnc2)c2ccc(Cl)cc2Cl)cc1` (stereo not shown) [sulconazole], the “effect of co-administration with colistin” value is reported as “bactericidal synergistic effect”.
